From doi:10.1101/2022.10.22.513346 (bioRxiv, 2022)
Changes are numbered by the printed parent chain. Results are given in words; binding and its absence hold for the method and conditions named. Binding seen in cells or lysates may run through a third protein. Some entries that bind do so weakly or less than the wild type. Sequences can lack the tags named with a protein.

Tests used:
Assay in all cases: split reporter
[1] = biological target: T1, C-YFP-AGO1^K185E/K190E (Arabidopsis thaliana) (UniProt O04379)
T1 sequence: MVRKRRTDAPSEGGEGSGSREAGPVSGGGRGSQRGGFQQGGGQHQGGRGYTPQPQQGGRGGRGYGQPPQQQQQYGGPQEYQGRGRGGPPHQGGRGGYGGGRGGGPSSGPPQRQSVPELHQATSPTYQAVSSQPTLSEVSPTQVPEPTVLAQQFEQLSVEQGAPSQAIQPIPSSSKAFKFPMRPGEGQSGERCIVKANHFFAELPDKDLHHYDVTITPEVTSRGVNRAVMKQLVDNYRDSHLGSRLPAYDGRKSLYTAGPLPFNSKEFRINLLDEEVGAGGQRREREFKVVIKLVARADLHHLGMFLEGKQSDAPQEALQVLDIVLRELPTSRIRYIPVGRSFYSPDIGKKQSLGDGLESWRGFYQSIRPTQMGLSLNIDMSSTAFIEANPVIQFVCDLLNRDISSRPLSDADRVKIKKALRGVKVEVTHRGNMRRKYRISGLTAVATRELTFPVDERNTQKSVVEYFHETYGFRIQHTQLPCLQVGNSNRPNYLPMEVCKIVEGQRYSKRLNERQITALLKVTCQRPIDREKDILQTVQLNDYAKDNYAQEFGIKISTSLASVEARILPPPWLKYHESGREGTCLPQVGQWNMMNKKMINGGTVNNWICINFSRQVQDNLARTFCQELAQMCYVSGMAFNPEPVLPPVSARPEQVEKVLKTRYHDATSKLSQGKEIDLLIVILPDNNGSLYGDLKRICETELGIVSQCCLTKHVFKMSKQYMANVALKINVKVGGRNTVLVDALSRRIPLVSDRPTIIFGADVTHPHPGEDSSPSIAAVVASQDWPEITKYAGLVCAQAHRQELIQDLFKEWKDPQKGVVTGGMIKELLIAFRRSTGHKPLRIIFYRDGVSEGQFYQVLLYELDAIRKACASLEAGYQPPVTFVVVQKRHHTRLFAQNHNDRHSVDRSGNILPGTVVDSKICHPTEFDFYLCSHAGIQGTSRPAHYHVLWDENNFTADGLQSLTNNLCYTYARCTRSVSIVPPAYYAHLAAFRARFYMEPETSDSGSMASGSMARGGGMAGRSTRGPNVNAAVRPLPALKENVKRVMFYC

[2] = biological target: T2, C-YFP-AGO1^WT (Arabidopsis thaliana) (UniProt O04379)
T2 sequence: T1 sequence with E185K, E190K

[3] = biological target: T3, C-YFP-AGO1^Y691E (Arabidopsis thaliana) (UniProt O04379)
T3 sequence: T1 sequence with E185K, E190K, Y691E

[4] = biological target: T4, C-YFP-AGO1^Y691E/K185E/K190E (Arabidopsis thaliana) (UniProt O04379)
T4 sequence: T1 sequence with Y691E

binding [1]: binds weakly | binding [2]: binds weakly | binding [3]: binds | binding [4]: binds
B1: N-YFP-ATI1 (protein, UniProt O82775 1-256)
chain: MANNEEHPPRGNEWEVVSLTSSAYAAAPGPYNVESRDVRKYDAYYGAETSRDLYMSEHFVFPPSEHENLPIDESLFVAEQRKDGRDLMLEGQGLSDQFHYEAGNNQQSIYGESALGSSRHMESFGSESAVYEHGLVDAEGNLDLHSDGEGEKDVKKSTHNLPCEAWWKRRAISMYSRTREANAIWSLFFAAAVTGLVVLGQRWQQERWQVLQLKWQSSISSEKLGRVLEPLSRLKDVIVRSNPQASLVRSGSSSEV
